Reference: the supplement of paper PMC3334620
In all, about 33,000 sequences were measured (“E-score (-0.5 to 0.5)”: median about -8e-05, highest 2% from about 0.23 on). The list shows a part of the results.

Target: T1, Nrg2 (UniProt P38082)
T1 sequence: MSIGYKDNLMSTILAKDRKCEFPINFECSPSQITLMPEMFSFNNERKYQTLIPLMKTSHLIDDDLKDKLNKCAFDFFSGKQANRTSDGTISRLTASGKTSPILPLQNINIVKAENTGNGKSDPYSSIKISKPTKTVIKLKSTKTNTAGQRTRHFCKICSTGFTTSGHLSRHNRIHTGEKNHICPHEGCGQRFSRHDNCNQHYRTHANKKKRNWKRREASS
Test: PBM E-score (8-mer binding enrichment) (E-score (-0.5 to 0.5)); higher = stronger / more preferred TF binding
Details: protein concentration: 100 nM; construct: GST-full length
In short: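 Using PURExpress in vitro transcription/translation, GST-tagged yeast transcription factors were made in full-length or DNA-binding-domain form. These were applied at about 100-200 nM to double-stranded universal all-10-mer Agilent arrays, and bound protein was detected with fluorescent anti-GST. Scans were normalised with masliner before the Universal PBM Analysis Suite assigned E-scores to ungapped eight-base words pooled with their reverse complements.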

In order of rising “PBM E-score” value:
1. GCTCCCCC  -0.392
2. AGGACGGG  -0.311
3. CCTTCGCC  -0.31
4. ACCTGGCG  -0.306
5. TAGGTAAA  -0.256
6. ACCGCCCA  -0.254
7. AGCCTCCA  -0.243
8. GAAGGAAA  -0.238
9. CCCTCTCG  -0.231
10. ACCACGGA  -0.229
11. ATGCTCAC  -0.206
12. ACGTGAAG  -0.205
13. ACTCTTGA  -0.196
14. GCGTCTCA  -0.195
15. ACGCATCG  -0.187
16. CCAGGGGG  -0.186
17. GTCAGCTA  -0.185
18. CACCGGAG  -0.176
19. GACAGTCC  -0.174
20. CCACGGCC  -0.172
21. AGTCTGTG  -0.167
22. TTAGAAAA  -0.166
23. AACCACGT  -0.165
24. CCCCTCAG  -0.159
25. AAAAACGT  -0.154
26. AGCTTCCC  -0.151
27. CCGGGGTA  -0.145
28. GGACGTGA  -0.144
29. CCACGTAC  -0.143
30. AGGGGAGC  -0.143
31. AATGAGAC  -0.141
32. AAACGGTG  -0.14
33. AGGCTGAT  -0.138
34. AGGCTTAC  -0.137
35. ACCTCTGC  -0.132
36. AAAATTCT  -0.13
37. CTAGCCTA  -0.126
38. ACCTACTA  -0.121
39. CTAAAGAC  -0.118
40. CATCCTTC  -0.113
41. ATGAGCAC  -0.108
42. CTTTTTCA  -0.105
43. CCGGACTA  -0.105
44. CATCGTTC  -0.103
45. GAACGTAC  -0.102
46. AGTACACG  -0.0994
47. AACGTCAG  -0.0974
48. CTCAAATC  -0.0972
49. GAATTTCA  -0.0968
50. AAGTCTAA  -0.0964
51. CTGAGCTA  -0.0962
52. ATGTCCCA  -0.0945
53. ATTCCTTG  -0.0911
54. CGGGCATA  -0.0878
55. CGCCCTTC  -0.0852
56. CGGGGAAG  -0.0844
57. CCATGATC  -0.0843
58. GGAGCGAC  -0.0839
59. CGCCTCAC  -0.0792
60. CTCCTACA  -0.0788
61. CGGTATAG  -0.0787
62. CAGTATCA  -0.0774
63. CGGCATAC  -0.0738
64. CTTTTTTA  -0.0708
65. TCCTACCA  -0.0696
66. CGGGTCGC  -0.0689
67. GATAGATC  -0.0671
68. CTAATTAA  -0.0653
69. AACGCTGT  -0.06
70. CTGTTCCC  -0.0599
71. AATCATAA  -0.0592
72. GAGTAAAC  -0.0581
73. AGGGAACG  -0.057
74. GCTAGGTA  -0.0549
75. TCAACCAA  -0.0548
76. TAAACGCA  -0.0522
77. TGAGGGCA  -0.0513
78. TACGCCCA  -0.0499
79. AGCCGCAC  -0.0483
80. GCAGTGCA  -0.0476
81. GCTAGGGA  -0.047
82. AGATGAAT  -0.0467
83. CCAGGCAC  -0.0452
84. ATTAGGGC  -0.043
85. GTGCGCGA  -0.042
86. CGGGGATC  -0.041
87. ACTGATTG  -0.035
88. TACCTGCA  -0.0327
89. ATAGGATC  -0.0324
90. CACACGAC  -0.0301
91. AACCACTT  -0.03
92. TGTAGAAA  -0.0291
93. AGTATTGC  -0.0277
94. GGATGCTA  -0.0274
95. GGACGGCC  -0.0271
96. CGTTGGGC  -0.0257
97. ATGCCACG  -0.0251
98. GATAGGGA  -0.0217
99. CCAAGACC  -0.0194
100. TAACCGGA  -0.0155
101. CTCTTTAA  -0.0133
102. ATCGTTCA  -0.013
103. AACCAAAG  -0.0122
104. CCGGATTC  -0.0118
105. AGCTATAA  -0.0113
106. AACCTGGA  -0.00995
107. ACAAACCC  -0.00861
108. GCTAAAAC  -0.00797
109. AGCATTCC  -0.0069
110. GAACTTCA  -0.00682
111. CAACCAAC  0.00033
112. CCCTAAGA  0.00133
113. ATTACACG  0.00432
114. ATGTGGTC  0.00614
115. ACCACATA  0.00668
116. AGAAACGG  0.00701
117. TTCGGAAA  0.00835
118. ATTAGATA  0.0113
119. TGATGTAA  0.0123
120. CACTACAC  0.0145
121. TAGCGTAA  0.0151
122. CTTAATGC  0.0153
123. AACCTATT  0.0161
124. CAAACCTA  0.0175
125. CTTTGGCC  0.0181
126. GAGATAGC  0.0185
127. CCAGTTGA  0.0187
128. GCGATGTA  0.0197
129. CAGAGTTC  0.0203
130. CTCTGCGC  0.0206
131. TCTCATAA  0.0223
132. GTTAGAAC  0.0227
133. CCCGCTAG  0.0237
134. AAAAATCC  0.026
135. GGTGTCAA  0.0264
136. ATTCTGGC  0.0275
137. ACTCCTGA  0.0304
138. AGTGCCGA  0.0305
139. ATTACGTA  0.0311
140. AGAGGCAC  0.0312
141. AATGCTTC  0.0333
142. AGCTCGGG  0.0409
143. ACCCAAAT  0.0414
144. TAACTGAA  0.0417
145. TAAGTGCA  0.0499
146. CAGCGAGA  0.052
147. GCTTACCA  0.0539
148. AGTCGCCG  0.0548
149. ACATCTCC  0.0552
150. CAGTTCAC  0.0554
151. CAACATAG  0.0555
152. ACTGTGAG  0.0562
153. TCAATTAA  0.0617
154. GCAGTTAA  0.0619
155. GAACTCTA  0.0626
156. CTCATTGC  0.0644
157. AGTACCAG  0.0651
158. TGATATCA  0.0655
159. CACTTGTA  0.0667
160. CATACAAC  0.0674
161. AATATCCC  0.0682
162. CATACGTA  0.0697
163. AATCAGTA  0.0698
164. ACATCTAC  0.0746
165. AATGTGGG  0.0782
166. AGACACTA  0.079
167. ACGACAAG  0.0805
168. AGGGTAAG  0.0808
169. GTATGGCA  0.0816
170. ATCCACCC  0.0829
171. TGCTACAA  0.0879
172. GGCCTAAC  0.0899
173. CAACTGCC  0.09
174. TCCCACGA  0.091
175. GAGAAAGC  0.0912
176. ACTGGCCC  0.0932
177. CTATCACA  0.0988
178. TCAGTGAA  0.103
179. ACCCCGCT  0.103
180. CAATTTAG  0.104
181. AAGTTGTG  0.107
182. GGGCATAA  0.109
183. GCTGATTA  0.109
184. ATTCCAAG  0.11
185. AAGCTGCG  0.111
186. ATTAACAG  0.111
187. ATTGAACC  0.112
188. CAGCTCGA  0.113
189. CGTTTGGA  0.117
190. ATAACTCA  0.119
191. ACTTTTCG  0.126
192. ATATTGTG  0.133
193. CCGCTACC  0.135
194. AAACAATT  0.137
195. GAAATCAC  0.14
196. GGTAACAA  0.144
197. TTACCGAA  0.146
198. CACTCGGA  0.147
199. CATACTAC  0.151
200. GGTACAAC  0.163
201. CACACAAA  0.165
202. GACGCGTA  0.168
203. AAGTTGTC  0.174
204. CCAAAAAA  0.18
205. ACCTTGAT  0.183
206. GTGATCTA  0.193
207. AGATATAA  0.202
208. CCTGACGA  0.204
209. ATTCGCGG  0.207
210. GGGTCAAC  0.213
211. AAGAGACA  0.215
212. GTGGTTCA  0.221
213. GGGTTCGA  0.225
214. AACAAATA  0.247
215. ATTATGCG  0.266
216. AACAATAT  0.266
217. CAAATGCG  0.268
218. AACAGGGC  0.283
219. GCGAACAA  0.322
